Reference: patent US7205002B2, “Method of making, and the use of cytotoxic agents containing elemental selenium” (MCW Research Foundation, Inc., priority 2002, dated 2007)
For at least one compound, name, drawing or mass did not settle the structure.

System: tumor cells
Assay: Interactions of conjugates with ionizing radiation and standard chemotherapeutic agents
Settings: 50 μg/ml; 60 min; cells exposed to edelfosine first

## CCCCCCCCCCCCCCCCCCOCC(COP(=O)([O-])OCC[N+](C)(C)C)OC (stereo not shown) [edelfosine]
  Effectiveness of combination with conjugates: moderately effective
